Results taken from the supplement of paper PMC12823440, “Inhibitors supercharge kinase turnover through native proteolytic circuits” (Nature, 2025).
Where a name gives a salt, the structure may show the parent alone. The list shows a part of the results. The calls rarely recur for the same compound in another form.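 Kinases were expressed as nanoluciferase fusions in K562 cells and luminescence was read every 4 h between 2 and 18 h as percent of control, DMSO set to 100% and a positive control to 0%. A time point counts as decreased when the signal drops significantly (2 sigma). The hit call is the authors' own, does not follow from the count of time points alone, and its rule is not shown.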

The chains behind the UniProt entries cited, without tags or fusion partners. Where a name states a change or a piece, a line headed by the entry shows the natural chain unless it says otherwise.
UniProt P07948: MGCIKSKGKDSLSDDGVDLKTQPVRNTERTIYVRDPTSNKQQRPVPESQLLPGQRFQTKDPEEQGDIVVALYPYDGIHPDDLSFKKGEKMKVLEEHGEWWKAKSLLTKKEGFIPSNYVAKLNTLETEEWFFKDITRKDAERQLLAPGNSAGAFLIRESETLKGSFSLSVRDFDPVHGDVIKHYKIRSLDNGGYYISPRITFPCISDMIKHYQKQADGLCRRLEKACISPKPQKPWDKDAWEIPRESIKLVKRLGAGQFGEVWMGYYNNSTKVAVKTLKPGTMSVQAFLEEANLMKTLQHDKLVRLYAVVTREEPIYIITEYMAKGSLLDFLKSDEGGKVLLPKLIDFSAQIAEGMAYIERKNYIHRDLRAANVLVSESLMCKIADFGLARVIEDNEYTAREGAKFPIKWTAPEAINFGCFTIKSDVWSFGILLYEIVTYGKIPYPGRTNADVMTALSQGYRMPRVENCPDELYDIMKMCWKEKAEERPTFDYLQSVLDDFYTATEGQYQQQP
UniProt P28482, whole entry: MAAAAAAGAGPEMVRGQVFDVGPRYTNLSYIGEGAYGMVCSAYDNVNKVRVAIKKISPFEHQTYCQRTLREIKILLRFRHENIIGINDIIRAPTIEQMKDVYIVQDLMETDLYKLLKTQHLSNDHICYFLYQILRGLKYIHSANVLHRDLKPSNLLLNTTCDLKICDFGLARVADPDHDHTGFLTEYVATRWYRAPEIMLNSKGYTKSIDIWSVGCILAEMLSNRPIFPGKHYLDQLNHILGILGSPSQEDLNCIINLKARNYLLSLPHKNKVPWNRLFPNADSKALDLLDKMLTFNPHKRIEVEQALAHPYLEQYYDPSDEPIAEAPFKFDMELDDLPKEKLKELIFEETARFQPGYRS
UniProt O96013: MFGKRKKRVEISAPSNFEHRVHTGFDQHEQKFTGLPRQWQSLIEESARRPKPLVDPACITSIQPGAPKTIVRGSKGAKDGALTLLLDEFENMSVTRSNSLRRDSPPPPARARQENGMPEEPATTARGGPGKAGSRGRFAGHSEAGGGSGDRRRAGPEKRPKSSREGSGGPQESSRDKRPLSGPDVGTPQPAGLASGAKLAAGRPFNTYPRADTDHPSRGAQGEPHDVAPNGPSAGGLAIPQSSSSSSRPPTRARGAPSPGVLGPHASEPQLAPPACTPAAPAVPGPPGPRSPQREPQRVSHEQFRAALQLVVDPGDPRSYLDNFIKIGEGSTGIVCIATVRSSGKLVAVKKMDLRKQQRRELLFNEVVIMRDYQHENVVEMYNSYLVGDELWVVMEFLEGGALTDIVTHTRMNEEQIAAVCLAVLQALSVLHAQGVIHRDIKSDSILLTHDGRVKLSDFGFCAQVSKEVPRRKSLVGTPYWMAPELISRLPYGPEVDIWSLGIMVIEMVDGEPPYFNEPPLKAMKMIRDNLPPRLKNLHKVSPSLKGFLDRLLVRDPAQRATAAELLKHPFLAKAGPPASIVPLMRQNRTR
UniProt Q96KB5: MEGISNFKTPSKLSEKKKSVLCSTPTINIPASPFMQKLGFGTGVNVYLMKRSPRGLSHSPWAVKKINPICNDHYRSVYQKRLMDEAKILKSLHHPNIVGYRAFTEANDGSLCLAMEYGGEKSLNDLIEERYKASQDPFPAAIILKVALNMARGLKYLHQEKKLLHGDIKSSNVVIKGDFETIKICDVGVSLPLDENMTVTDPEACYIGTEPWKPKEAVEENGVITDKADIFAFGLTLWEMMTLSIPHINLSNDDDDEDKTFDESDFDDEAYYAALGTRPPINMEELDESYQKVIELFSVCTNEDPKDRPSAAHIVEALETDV
UniProt P09619, whole entry: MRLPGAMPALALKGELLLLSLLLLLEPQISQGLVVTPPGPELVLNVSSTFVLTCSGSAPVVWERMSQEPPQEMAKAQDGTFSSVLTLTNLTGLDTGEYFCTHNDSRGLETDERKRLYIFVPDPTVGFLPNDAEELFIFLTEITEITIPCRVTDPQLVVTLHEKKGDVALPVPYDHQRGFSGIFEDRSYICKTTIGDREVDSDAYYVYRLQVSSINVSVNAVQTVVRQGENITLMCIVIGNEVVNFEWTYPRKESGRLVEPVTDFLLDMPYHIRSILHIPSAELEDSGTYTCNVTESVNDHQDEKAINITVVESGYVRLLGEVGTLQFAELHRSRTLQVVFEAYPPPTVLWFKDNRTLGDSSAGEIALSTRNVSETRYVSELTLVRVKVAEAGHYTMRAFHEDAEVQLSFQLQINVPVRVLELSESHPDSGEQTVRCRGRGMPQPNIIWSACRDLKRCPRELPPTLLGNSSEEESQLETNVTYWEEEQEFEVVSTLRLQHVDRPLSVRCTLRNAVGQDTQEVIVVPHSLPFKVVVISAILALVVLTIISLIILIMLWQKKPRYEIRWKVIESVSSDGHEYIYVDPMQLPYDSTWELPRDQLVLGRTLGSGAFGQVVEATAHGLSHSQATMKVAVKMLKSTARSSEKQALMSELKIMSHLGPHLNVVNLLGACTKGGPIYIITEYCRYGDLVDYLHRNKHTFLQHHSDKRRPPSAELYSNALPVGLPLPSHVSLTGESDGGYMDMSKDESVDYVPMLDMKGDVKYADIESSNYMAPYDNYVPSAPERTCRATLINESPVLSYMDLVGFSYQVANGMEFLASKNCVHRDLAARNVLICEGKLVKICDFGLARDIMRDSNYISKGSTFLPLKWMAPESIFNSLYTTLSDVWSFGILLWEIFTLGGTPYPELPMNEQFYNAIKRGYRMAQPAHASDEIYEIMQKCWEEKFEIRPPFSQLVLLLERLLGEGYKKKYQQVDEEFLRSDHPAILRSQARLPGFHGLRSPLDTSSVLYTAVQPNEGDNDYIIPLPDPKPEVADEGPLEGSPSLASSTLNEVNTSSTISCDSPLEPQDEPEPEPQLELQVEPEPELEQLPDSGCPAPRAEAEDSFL
UniProt Q15118, whole entry, looked up: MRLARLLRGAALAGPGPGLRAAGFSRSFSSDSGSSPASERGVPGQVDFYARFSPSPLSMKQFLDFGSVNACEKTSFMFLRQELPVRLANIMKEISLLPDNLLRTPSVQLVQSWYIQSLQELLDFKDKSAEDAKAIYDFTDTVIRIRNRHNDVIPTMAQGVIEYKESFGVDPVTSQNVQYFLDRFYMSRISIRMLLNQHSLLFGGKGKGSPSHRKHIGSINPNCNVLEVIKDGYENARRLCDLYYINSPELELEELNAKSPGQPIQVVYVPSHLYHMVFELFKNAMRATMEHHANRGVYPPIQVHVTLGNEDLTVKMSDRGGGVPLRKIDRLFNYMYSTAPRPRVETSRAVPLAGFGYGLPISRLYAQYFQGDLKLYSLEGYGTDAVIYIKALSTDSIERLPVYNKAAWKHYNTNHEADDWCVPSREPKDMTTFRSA
UniProt P42356, whole entry, looked up: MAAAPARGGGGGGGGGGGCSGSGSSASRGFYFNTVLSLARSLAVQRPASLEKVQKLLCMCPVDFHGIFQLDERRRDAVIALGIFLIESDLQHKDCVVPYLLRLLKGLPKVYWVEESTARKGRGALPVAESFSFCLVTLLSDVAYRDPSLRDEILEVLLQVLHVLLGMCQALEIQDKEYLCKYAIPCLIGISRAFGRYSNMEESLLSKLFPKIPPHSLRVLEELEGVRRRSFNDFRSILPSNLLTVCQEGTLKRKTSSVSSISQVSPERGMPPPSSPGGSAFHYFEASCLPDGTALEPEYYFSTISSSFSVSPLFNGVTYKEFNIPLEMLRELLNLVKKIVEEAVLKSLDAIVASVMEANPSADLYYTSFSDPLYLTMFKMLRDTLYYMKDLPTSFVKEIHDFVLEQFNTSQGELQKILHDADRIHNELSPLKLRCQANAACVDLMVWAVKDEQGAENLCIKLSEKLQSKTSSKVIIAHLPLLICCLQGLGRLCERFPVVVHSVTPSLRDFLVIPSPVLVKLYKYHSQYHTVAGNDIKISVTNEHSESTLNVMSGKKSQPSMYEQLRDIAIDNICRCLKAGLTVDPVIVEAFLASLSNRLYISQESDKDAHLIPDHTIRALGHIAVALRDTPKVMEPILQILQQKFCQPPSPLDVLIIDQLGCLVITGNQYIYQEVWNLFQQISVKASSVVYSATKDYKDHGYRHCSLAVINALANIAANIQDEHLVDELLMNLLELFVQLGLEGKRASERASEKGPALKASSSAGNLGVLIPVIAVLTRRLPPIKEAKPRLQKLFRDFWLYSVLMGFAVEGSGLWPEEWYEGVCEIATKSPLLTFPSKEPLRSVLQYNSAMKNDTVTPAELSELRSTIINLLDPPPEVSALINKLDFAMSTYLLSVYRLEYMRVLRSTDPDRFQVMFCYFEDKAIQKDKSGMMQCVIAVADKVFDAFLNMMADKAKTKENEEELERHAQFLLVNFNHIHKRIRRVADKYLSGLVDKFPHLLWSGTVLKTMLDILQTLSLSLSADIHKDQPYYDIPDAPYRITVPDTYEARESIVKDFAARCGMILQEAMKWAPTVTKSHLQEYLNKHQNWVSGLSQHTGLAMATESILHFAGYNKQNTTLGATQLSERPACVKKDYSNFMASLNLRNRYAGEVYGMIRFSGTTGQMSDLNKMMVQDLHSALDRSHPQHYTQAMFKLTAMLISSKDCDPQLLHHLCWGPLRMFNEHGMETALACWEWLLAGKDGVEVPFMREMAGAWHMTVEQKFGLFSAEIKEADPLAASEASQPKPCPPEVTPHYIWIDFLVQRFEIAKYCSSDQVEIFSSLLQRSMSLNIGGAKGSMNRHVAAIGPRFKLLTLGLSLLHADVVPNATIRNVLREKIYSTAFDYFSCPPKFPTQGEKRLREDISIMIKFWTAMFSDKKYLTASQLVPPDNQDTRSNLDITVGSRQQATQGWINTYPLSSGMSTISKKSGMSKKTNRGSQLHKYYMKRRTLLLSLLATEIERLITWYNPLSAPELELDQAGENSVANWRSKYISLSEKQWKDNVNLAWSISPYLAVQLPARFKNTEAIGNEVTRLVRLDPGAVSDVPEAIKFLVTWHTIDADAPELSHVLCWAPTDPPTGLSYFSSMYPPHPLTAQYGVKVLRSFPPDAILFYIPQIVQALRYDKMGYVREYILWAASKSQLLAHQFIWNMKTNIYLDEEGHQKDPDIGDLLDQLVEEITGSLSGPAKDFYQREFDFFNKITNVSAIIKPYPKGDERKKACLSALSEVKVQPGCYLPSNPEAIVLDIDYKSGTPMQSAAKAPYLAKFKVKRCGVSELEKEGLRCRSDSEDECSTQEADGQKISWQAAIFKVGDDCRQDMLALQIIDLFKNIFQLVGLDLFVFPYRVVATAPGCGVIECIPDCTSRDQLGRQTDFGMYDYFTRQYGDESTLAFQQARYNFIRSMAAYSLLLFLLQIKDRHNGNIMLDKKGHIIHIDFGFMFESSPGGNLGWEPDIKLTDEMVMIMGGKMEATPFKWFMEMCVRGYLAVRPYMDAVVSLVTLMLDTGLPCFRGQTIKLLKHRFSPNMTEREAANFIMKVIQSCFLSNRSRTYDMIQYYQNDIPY
UniProt Q9UBF8: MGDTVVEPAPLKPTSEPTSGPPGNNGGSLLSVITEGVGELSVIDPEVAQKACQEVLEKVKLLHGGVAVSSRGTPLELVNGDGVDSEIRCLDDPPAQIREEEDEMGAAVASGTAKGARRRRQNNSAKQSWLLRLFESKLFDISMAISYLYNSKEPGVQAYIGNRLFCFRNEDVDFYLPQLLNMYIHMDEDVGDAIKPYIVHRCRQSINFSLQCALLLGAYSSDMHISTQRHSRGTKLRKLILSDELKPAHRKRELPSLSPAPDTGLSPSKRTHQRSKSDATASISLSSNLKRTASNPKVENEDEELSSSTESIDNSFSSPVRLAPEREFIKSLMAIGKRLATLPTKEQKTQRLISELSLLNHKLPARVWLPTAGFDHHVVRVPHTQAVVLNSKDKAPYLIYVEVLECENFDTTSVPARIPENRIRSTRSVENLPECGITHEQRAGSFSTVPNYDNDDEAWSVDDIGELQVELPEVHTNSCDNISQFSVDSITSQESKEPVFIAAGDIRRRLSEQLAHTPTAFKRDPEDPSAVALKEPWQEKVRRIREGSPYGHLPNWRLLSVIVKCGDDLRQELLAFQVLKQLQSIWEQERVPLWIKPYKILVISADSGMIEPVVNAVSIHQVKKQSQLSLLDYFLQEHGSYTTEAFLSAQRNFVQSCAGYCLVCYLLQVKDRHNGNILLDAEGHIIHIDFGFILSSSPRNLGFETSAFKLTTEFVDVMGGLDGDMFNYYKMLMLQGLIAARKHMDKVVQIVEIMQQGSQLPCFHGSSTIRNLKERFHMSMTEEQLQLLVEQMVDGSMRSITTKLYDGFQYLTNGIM

Experiments:
Experiment in all cases: number of time points (of 5) at which kinase-Nluc abundance scored as decreased, DMSO-normalised (count); higher = more persistent destabilization
Conditions in all cases: K562; 2-18 h
LMTK2 = LMTK2 (UniProt Q8IWU2)
LYN = LYN (UniProt P07948)
MAP2K1 = MAP2K1 (UniProt Q02750)
MAP2K2 = MAP2K2 (UniProt P36507)
MAP4K2 = MAP4K2 (UniProt Q12851)
MAPK1 = MAPK1 (UniProt P28482)
MAPK4 = MAPK4 (UniProt P31152)
MAPKAPK2 = MAPKAPK2 (UniProt P49137)
MKNK1 = MKNK1 (UniProt Q9BUB5)
NTRK2 = NTRK2 (UniProt Q16620)
NTRK3 = NTRK3 (UniProt Q16288)
PAK4 = PAK4 (UniProt O96013)
PBK = PBK (UniProt Q96KB5)
PDGFRB = PDGFRB (UniProt P09619)
PDK1 = PDK1 (UniProt Q15118)
PIK4CA = PIK4CA (UniProt P42356)
PIK4CB = PIK4CB (UniProt Q9UBF8)
PLK1 = PLK1 (UniProt P53350)
PRKAA1 = PRKAA1 (UniProt Q13131)
PDPK1 = PDPK1 (UniProt O15530)

Structure (SMILES) | number of time points (LMTK2) | number of time points (LYN) | number of time points (MAP2K1) | number of time points (MAP2K2) | number of time points (MAP4K2) | number of time points (MAPK1) | number of time points (MAPK4) | number of time points (MAPKAPK2) | number of time points (MKNK1) | number of time points (NTRK2) | number of time points (NTRK3) | number of time points (PAK4) | number of time points (PBK) | number of time points (PDGFRB) | number of time points (PDK1) | number of time points (PIK4CA) | number of time points (PIK4CB) | number of time points (PLK1) | number of time points (PRKAA1) | number of time points (PDPK1)
O=C(N[C@@H](COc1ccc2[nH]c(=O)[nH]c2c1)c1ccccc1)c1cccn(Cc2ccc(F)c(F)c2)c1=O (2.5 µM) | 1 | 0 | 0 | 0 | 0 | 0 | 0 | 0 | 0 | 0 | 0 | 0 | 0 | 0 | 0 | 0 | 0 | 0 | 0 | –
C[C@H]1CC[C@]2(NC1)O[C@H]1C[C@H]3[C@@H]4CC[C@H]5C[C@@H](O)CC[C@]5(C)[C@H]4CC[C@]3(C)[C@H]1[C@@H]2C [Tomatidine (hydrochloride)] (10 µM) | 0 | 0 | 0 | 0 | 0 | 0 | 0 | – | 0 | 0 | 0 | 0 | 0 | 0 | 0 | 0 | 0 | 0 | 0 | 0
O=c1ccc2cc(O[C@@H]3O[C@H](CO)[C@@H](O)[C@H](O)[C@H]3O)c(O)cc2o1 [Esculin] (10 µM) | 0 | 0 | 0 | 0 | 0 | 0 | 0 | 0 | 0 | 0 | 0 | 0 | 0 | 0 | 0 | 0 | 0 | 0 | 0 | 0
Cc1n[nH]cc1-c1cc2nc([C@@H]3CC4CCN3CC4)[nH]c(=O)c2s1 [Simurosertib] (2.5 µM) | 0 | 0 | 0 | 0 | 0 | 0 | 0 | 0 | 0 | 0 | 0 | 0 | 0 | 0 | 0 | 0 | 0 | 0 | 0 | 0
COc1cc2c(cc1F)C(c1ccccc1Cl)=Nc1c(n[nH]c1C)N2 (0.5 µM) | 0 | 0 | 0 | 0 | 0 | 0 | 0 | 0 | 0 | 0 | 0 | 0 | 0 | 0 | 0 | 0 | 0 | 0 | 0 | 0
Cc1ccccc1-n1c(Cn2cnc3c(N)ncnc32)nc2cccc(C)c2c1=O (10 µM) | 0 | 0 | 0 | 0 | 0 | 0 | 0 | 0 | 0 | 0 | 0 | 0 | 0 | 0 | 0 | 0 | 0 | 0 | 0 | 0
C[C@H]1CC[C@]2(NC1)O[C@H]1C[C@H]3[C@@H]4CC[C@H]5C[C@@H](O)CC[C@]5(C)[C@H]4CC[C@]3(C)[C@H]1[C@@H]2C [Tomatidine] (2 µM) | 0 | 0 | 0 | 0 | 0 | 0 | 0 | – | 0 | 0 | 0 | 0 | 0 | 0 | 0 | 0 | 0 | 0 | 0 | 0
COc1ccc(N(C(=O)Oc2c(C)cccc2C)c2ccnc(Nc3ccc(N4CCN(C)CC4)cc3)n2)c(OC)c1 (2.5 µM) | 0 | 0 | 0 | 0 | 0 | 0 | 0 | 0 | 0 | 0 | 0 | 0 | 0 | 0 | 0 | 0 | 0 | 0 | 0 | 0
CCN1CCN(C(=O)Cc2ccc(Nc3ncc(F)c(Nc4ccc(C(=O)Nc5ccccc5Cl)cc4)n3)cc2)CC1 (2.5 µM) | 0 | 0 | 0 | 0 | 0 | 0 | 0 | 0 | 0 | 0 | 0 | 0 | 0 | 0 | 0 | 0 | 0 | 0 | 0 | 0
C[C@H](CCC(=O)O)C[C@H](C)C[C@H](C)C(=O)/C=C(\O)[C@H](C)C[C@H](C)C/C=C/[C@@H](C)[C@@H](O)[C@@H](C)[C@@H](O)C[C@@H]1CC[C@@](C)([C@H]2CC[C@@](C)([C@@H](C)O)O2)O1 [Ionomycin (calcium)] (2.5 µM) | 0 | 0 | 0 | 0 | 0 | 0 | 2 | 0 | 0 | 5 | 0 | 0 | 0 | 0 | 0 | 0 | 0 | 0 | 5 | 0
COc1ccc2c(c[n+](C)c3c4cc5c(cc4ccc23)OCO5)c1OC [Chelerythrine (chloride)] (10 µM) | 1 | 0 | 0 | 0 | 0 | 0 | 0 | 0 | 0 | 0 | 4 | 0 | 0 | 0 | 0 | 0 | 0 | 0 | 0 | 0
C[C@H](Nc1ncnc2[nH]cnc12)c1nc2ccc(F)cc2c(=O)n1-c1ccccc1 [Acalisib] (10 µM) | 0 | 0 | 0 | 0 | 0 | 0 | 0 | 0 | 0 | – | 0 | 0 | 0 | 0 | 0 | 0 | 0 | 0 | 0 | 0
CN(C)C(=O)c1ccc(Cn2c(C(=O)O)cc3c(Br)cc(Sc4ccc(Cl)c(Cl)c4)cc32)cc1 [Rheb inhibitor NR1] (10 µM) | 0 | 0 | 0 | 0 | 0 | 0 | 0 | 0 | 0 | – | 0 | 0 | 0 | 0 | 0 | 0 | 0 | 0 | 0 | 0
C[S+]([O-])/C=C/CCN=C=S (centres undefined) [Sulforaphene] (10 µM) | 0 | 0 | 0 | 0 | 0 | 0 | 0 | 0 | 0 | 0 | 0 | 0 | 0 | 0 | 0 | 0 | 0 | 0 | 0 | 0
COC[C@H]1OC(=O)c2coc3c2[C@@]1(C)C1=C(C3=O)[C@@H]2CCC(=O)[C@@]2(C)C[C@H]1OC(C)=O [Wortmannin] (2.5 µM) | 0 | 0 | 0 | 0 | 0 | 0 | 0 | 0 | 4 | 0 | 0 | 0 | 0 | 0 | 0 | 0 | 2 | – | 0 | 3
N#CC(C#N)=NNc1cccc(Cl)c1 (2.5 µM) | 0 | 0 | 0 | 0 | 0 | 0 | 0 | 0 | 0 | 0 | 0 | 0 | 0 | 0 | 0 | 0 | 0 | 0 | 0 | 0
N#CC(C#N)=Cc1ccc([N+](=O)[O-])c(O)c1 (10 µM) | 0 | 0 | 0 | 0 | 0 | 0 | 0 | 0 | 0 | 0 | 0 | 0 | 0 | 0 | 0 | 0 | 0 | 0 | 0 | 0
O=Cc1cn(Cc2ccc(Cl)cc2)c2ccccc12 [Oncrasin-1] (10 µM) | 0 | 0 | 0 | 0 | 0 | 0 | 0 | 0 | 0 | 0 | 0 | 0 | 0 | 0 | 0 | 0 | 0 | 0 | 0 | 0

2 records picked at random from the list so far:
Structure (SMILES) | number of time points (LMTK2) | number of time points (LYN) | number of time points (MAP2K1) | number of time points (MAP2K2) | number of time points (MAP4K2) | number of time points (MAPK1) | number of time points (MAPK4) | number of time points (MAPKAPK2) | number of time points (MKNK1) | number of time points (NTRK2) | number of time points (NTRK3) | number of time points (PAK4) | number of time points (PBK) | number of time points (PDGFRB) | number of time points (PDK1) | number of time points (PIK4CA) | number of time points (PIK4CB) | number of time points (PLK1) | number of time points (PRKAA1) | number of time points (PDPK1)
O=c1ccc2cc(O[C@@H]3O[C@H](CO)[C@@H](O)[C@H](O)[C@H]3O)c(O)cc2o1 [Esculin] (10 µM) | 0 | 0 | 0 | 0 | 0 | 0 | 0 | 0 | 0 | 0 | 0 | 0 | 0 | 0 | 0 | 0 | 0 | 0 | 0 | 0
C[C@H](Nc1ncnc2[nH]cnc12)c1nc2ccc(F)cc2c(=O)n1-c1ccccc1 [Acalisib] (10 µM) | 0 | 0 | 0 | 0 | 0 | 0 | 0 | 0 | 0 | – | 0 | 0 | 0 | 0 | 0 | 0 | 0 | 0 | 0 | 0
